For two molecules, binding results are on record in PMC3642088, “Phosphorylation of CDK9 at Ser175 Enhances HIV Transcription and Is a Marker of Activated P-TEFb in CD4^+ T Lymphocytes” (PLoS Pathogens, 2013).

Protein sequences, listed by entry. Tags and fused reporters are not part of them. Lines headed by an entry give the natural chain unless they say otherwise; changes in a name come on top. Chains listed by the source or under a name are the forms on record and can include a tag or linker.
UniProt P50750: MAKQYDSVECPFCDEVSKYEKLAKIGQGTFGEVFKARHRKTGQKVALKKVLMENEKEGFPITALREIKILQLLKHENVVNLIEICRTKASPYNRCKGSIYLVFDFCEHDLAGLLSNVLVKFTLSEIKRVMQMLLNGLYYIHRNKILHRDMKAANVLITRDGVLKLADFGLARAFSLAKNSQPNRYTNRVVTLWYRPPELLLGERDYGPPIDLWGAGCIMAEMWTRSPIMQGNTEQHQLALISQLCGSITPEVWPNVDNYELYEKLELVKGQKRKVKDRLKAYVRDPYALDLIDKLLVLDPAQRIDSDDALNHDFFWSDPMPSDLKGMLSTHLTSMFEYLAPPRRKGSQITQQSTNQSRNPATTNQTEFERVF
CDK9 Isoform 2 (117 amino acid extension at N-Terminus) (P50750-2, form named): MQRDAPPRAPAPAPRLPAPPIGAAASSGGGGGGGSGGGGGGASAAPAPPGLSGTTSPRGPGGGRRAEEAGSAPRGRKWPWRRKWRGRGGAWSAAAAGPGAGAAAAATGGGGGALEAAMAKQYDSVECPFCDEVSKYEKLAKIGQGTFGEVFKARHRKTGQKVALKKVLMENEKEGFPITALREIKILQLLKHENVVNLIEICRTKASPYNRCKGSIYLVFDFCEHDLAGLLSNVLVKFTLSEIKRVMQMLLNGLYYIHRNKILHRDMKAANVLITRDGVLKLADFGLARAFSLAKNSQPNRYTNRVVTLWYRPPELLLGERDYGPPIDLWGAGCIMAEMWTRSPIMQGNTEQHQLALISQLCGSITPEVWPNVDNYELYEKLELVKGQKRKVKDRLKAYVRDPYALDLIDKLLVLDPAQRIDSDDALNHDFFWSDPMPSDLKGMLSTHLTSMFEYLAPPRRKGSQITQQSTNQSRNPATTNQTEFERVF

The experiment has as its target FLAG-CDK9 isoform 1, wild type (human) (UniProt P50750). As to the kind of experiment: affinity purification with mass spectrometry; FLAG-CDK9 complexes from whole cell extracts of Jurkat 2D10 cells (untreated, PMA or TCR stimulated) on anti-FLAG M2 agarose overnight at 4°C, lysis buffer A or RIPA buffer, eluted with FLAG peptide, SDS-PAGE bands analysed by nano LC-MS/MS.

Results are given in words; binding and its absence hold for the method and conditions named. Binding seen in cells or lysates may run through a third protein. These calls come from enrichment with a bait or labelling near it, and not all partners need be listed.

In the case of “CDK9 Isoform 2 (117 amino acid extension at N-Terminus) (from UniProt P50750-2 1-489) (enzyme)”, the binding entry is reported as “binds”.

B1: HEXIM2 (protein, UniProt Q96MH2 1-286)
chain: MMATPNQTACNAESPVALEEAKTSGAPGSPQTPPERHDSGGSLPLTPRMESHSEDEDLAGAVGGLGWNSRSPRTQSPGGCSAEAVLARKKHRRRPSKRKRHWRPYLELSWAEKQQRDERQSQRASRVREEMFAKGQPVAPYNTTQFLMNDRDPEEPNLDVPHGISHPGSSGESEAGDSDGRGRAHGEFQRKDFSETYERFHTESLQGRSKQELVRDYLELEKRLSQAEEETRRLQQLQACTGQQSCRQVEELAAEVQRLRTENQRLRQENQMWNREGCRCDEEPGT
In the case of B1, the binding entry was “binds”.
